PubChem BioAssay AID743454 – Peter MacCallum Cancer Centre – 2014
The deposit covers about 18,000 reagents; shown is an unselected part. Of all reagents, 450 (2.5%) were called active. 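Single biological run; no consistent viability z cut-off exists, so the class columns, not z-scores, define the calls.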 No sequences are given here.

Purpose: 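Search for knock-downs that restore vorinostat killing in resistant colon cancer cells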 (primary screen)
System: human HCT116-VR colon cancer cells, selected for vorinostat resistance
Reagents: siRNA pool against human genes, 40 nM siRNA pool
Time to read-out: vorinostat for 24 h, read-out about 72 h after transfection
Treatment: vorinostat at 2.5 µM final
Read-out: 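Two measures, CellTiter-Fluor viability and luminescent caspase 3/7 activity, each as fold change against same-plate mock wells, mean of duplicates, then screen-wide robust z-score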
Scale: viability robust z-score: higher = more viable cells than screen typical; caspase robust z-score: higher = more caspase 3/7 activity than screen typical
Hit rule: 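Hits are knock-downs in viability class RV1/RV2 or caspase class CA1/CA2, excluding ones that killed cells in the no-drug cell-count arm; hits then retested with single siRNAs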

For FAM174B (family with sequence similarity 174 member B), how do the results read?
viability hit class: no change; caspase hit class: no change; viability robust z-score: -0.41; caspase robust z-score: 2; activity call: inactive

How did the screen score RNF24 (ring finger protein 24)?
viability hit class: no change; caspase hit class: no change; viability robust z-score: -0.16; caspase robust z-score: -0.98; activity call: inactive

With CRBN (cereblon), what was measured?
viability hit class: no change; caspase hit class: no change; viability robust z-score: -0.69; caspase robust z-score: 2.08; activity call: inactive

With CLEC12B (C-type lectin domain family 12 member B), how do the results read?
viability hit class: no change; caspase hit class: no change; viability robust z-score: 1.15; caspase robust z-score: -0.03; activity call: inactive

With TSLIG1 (tRNA splicing ligase complex subunit 1), how do the results read?
viability hit class: no change; caspase hit class: no change; viability robust z-score: -0.77; caspase robust z-score: -0.98; activity call: inactive

What is on record for CPXM1 (carboxypeptidase X, M14 family member 1)?
viability hit class: no change; caspase hit class: no change; viability robust z-score: -0.2; caspase robust z-score: 0.36; activity call: inactive

For IL31RA (interleukin 31 receptor A), what was measured?
viability hit class: no change; caspase hit class: no change; viability robust z-score: 0.51; caspase robust z-score: -0.02; activity call: inactive

With TRIP11 (thyroid hormone receptor interactor 11), what was measured?
viability hit class: no change; caspase hit class: no change; viability robust z-score: 0.32; caspase robust z-score: 0.19; activity call: inactive

How did the screen score FMNL2 (formin like 2)?
viability hit class: no change; caspase hit class: no change; viability robust z-score: -1.78; caspase robust z-score: 1.52; activity call: inactive

How did the screen score TAGLN3 (transgelin 3)?
viability hit class: no change; caspase hit class: no change; viability robust z-score: 0.79; caspase robust z-score: 0.39; activity call: inactive

What did the screen give for LDB2 (LIM domain binding 2)?
viability hit class: no change; caspase hit class: no change; viability robust z-score: -0.15; caspase robust z-score: -1.12; activity call: inactive

Just “caspase robust z-score”, for 2 of the entries above:
CPXM1 (carboxypeptidase X, M14 family member 1): 0.36
IL31RA (interleukin 31 receptor A): -0.02

Additional reagents:
How did the screen score TECTB (tectorin beta)?
viability hit class: RV2 (reduced viability); caspase hit class: no change; viability robust z-score: -4.08; caspase robust z-score: 0.72; activity call: active

With H2AB2 (H2A.B variant histone 2), what does the deposit list?
viability hit class: no change; caspase hit class: no change; viability robust z-score: -0.74; caspase robust z-score: 1.26; activity call: inactive

What is on record for GDAP1L1?
viability hit class: no change; caspase hit class: no change; viability robust z-score: -0.18; caspase robust z-score: -0.68; activity call: inactive

For SFT2D3 (SFT2 domain containing 3), what does the deposit list?
viability hit class: no change; caspase hit class: no change; viability robust z-score: 1.14; caspase robust z-score: -0.85; activity call: inactive

How did the screen score FAM47A (family with sequence similarity 47 member A)?
viability hit class: no change; caspase hit class: no change; viability robust z-score: 0.14; caspase robust z-score: -0.57; activity call: inactive

For REXO1 (RNA exonuclease 1 homolog), what does the deposit list?
viability hit class: no change; caspase hit class: no change; viability robust z-score: -0.64; caspase robust z-score: 0.65; activity call: inactive

For PDLIM7 (PDZ and LIM domain 7), how do the results read?
viability hit class: no change; caspase hit class: no change; viability robust z-score: 0.74; caspase robust z-score: 3.63; activity call: inactive

What is on record for MSR1 (macrophage scavenger receptor 1)?
viability hit class: no change; caspase hit class: no change; viability robust z-score: 0.38; caspase robust z-score: -0.92; activity call: inactive

How did the screen score USP14 (ubiquitin specific peptidase 14)?
viability hit class: no change; caspase hit class: no change; viability robust z-score: -2.7; caspase robust z-score: 0.46; activity call: inactive

With LOC402715 (karyopherin subunit alpha 2 pseudogene), what was measured?
viability hit class: no change; caspase hit class: no change; viability robust z-score: 0.06; caspase robust z-score: 0.05; activity call: inactive

Which result is listed for AREG (amphiregulin)?
viability hit class: no change; caspase hit class: no change; viability robust z-score: -2.53; caspase robust z-score: 3.09; activity call: inactive

For TASP1 (taspase 1), how do the results read?
viability hit class: no change; caspase hit class: no change; viability robust z-score: 0; caspase robust z-score: 0.04; activity call: inactive

With PHF2 (PHD finger protein 2), what does the deposit list?
viability hit class: no change; caspase hit class: no change; viability robust z-score: -0.16; caspase robust z-score: -0.62; activity call: inactive

For TRAPPC12 (trafficking protein particle complex subunit 12), what does the deposit list?
viability hit class: no change; caspase hit class: no change; viability robust z-score: -0.8; caspase robust z-score: -0.44; activity call: inactive

With ADAM7 (ADAM metallopeptidase domain 7), how do the results read?
viability hit class: no change; caspase hit class: no change; viability robust z-score: 0.47; caspase robust z-score: -0.8; activity call: inactive

For C7orf25 (chromosome 7 open reading frame 25), what was measured?
viability hit class: no change; caspase hit class: no change; viability robust z-score: 0.15; caspase robust z-score: 0.06; activity call: inactive
